Assay results taken from PMC8056046.
No constants are given. Whether binding was seen depends on the method and setting. Binding seen in cells or lysates may run through a third protein. Some entries that bind do so weakly or less than the wild type. For some assays here: Where a sequence is shown, tags or fusion partners need not be part of it.

Sequences of proteins named here, by UniProt entry; tags and fusion partners are left off.
UniProt Q00987: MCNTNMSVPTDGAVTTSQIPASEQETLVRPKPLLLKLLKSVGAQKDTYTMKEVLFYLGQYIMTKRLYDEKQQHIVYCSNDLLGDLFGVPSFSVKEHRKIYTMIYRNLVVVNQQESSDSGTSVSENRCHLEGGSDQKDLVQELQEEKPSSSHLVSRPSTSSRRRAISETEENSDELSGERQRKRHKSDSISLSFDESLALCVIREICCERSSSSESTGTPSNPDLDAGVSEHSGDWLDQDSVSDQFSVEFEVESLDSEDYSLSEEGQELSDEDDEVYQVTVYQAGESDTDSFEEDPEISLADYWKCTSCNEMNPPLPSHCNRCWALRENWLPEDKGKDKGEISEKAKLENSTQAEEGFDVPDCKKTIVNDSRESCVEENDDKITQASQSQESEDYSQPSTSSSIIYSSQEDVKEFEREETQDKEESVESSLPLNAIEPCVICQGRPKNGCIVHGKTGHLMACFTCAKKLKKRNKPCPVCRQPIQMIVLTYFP

Legend:
[1] = target: T1, Flag-tagged small heterodimer partner (SHP-WT) (UniProt Q15466); assay: co-IP; HEK293T cells transfected; Flag-SHP precipitated with anti-FLAG M2 magnetic beads, MDM2 detected with an anti-Myc antibody
T1 sequence: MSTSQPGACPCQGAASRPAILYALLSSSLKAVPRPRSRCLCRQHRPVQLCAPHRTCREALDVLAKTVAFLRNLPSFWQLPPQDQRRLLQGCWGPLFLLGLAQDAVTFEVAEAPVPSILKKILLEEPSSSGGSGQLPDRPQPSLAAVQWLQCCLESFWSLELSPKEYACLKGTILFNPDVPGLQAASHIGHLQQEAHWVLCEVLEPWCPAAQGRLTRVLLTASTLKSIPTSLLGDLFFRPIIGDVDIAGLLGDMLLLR

[2] = target: T2, small heterodimer partner (SHP), endogenous in Lenti-FXR CaSki cells (human (endogenous in CaSki)) (UniProt Q15466); assay: co-IP; supernatants of Lenti-FXR CaSki cells incubated with 2 ug IgG or anti-SHP, protein G-Agarose beads, blot with anti-MDM2
T2 sequence: T1 sequence

Row | Substance | binding [1] | binding [2]
1 | Myc-tagged murine double minute-2 (MDM2) (from UniProt Q00987 1-491) | binds | 
2 | murine double minute-2 (MDM2), endogenous in Lenti-FXR CaSki cells (from UniProt Q00987 1-491) |  | binds
